Assay results published in patent US20180305423A1 (OKLAHOMA MEDICAL RESEARCH FOUNDATION, published 2018).
No constants are given. Whether binding was seen depends on the method and setting. Binding seen in cells or lysates may run through a third protein. Some results given as binding are weak or reduced against the parent protein; the word gives no strength.

Chains of the proteins cited; added tags and fusions are not shown. Lines headed by an entry give the natural chain unless they say otherwise; changes in a name come on top. A line that says so, or that is headed by a name, gives the form on record, which may keep a tag or linker.
Human VEGFR2 kinase domain (KD) with 6xHis tag at the C-terminus (P35968, form named): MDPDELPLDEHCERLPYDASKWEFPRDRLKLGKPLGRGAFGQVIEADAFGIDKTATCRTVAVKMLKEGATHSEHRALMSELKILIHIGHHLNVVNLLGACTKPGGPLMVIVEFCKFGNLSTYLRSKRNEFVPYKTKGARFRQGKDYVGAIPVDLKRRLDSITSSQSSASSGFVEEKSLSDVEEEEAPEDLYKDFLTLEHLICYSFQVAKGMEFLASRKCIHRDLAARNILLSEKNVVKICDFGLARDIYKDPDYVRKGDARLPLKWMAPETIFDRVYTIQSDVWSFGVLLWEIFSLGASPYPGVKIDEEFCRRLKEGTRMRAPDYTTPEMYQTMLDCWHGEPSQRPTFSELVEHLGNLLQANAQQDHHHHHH

Molecular target: Human VEGFR2 kinase domain (KD) with 6xHis tag at the C-terminus (human) (UniProt P35968)
Test: peptide competition co-IP (anti-His) in 293T lysates; blocked ligand: epsin 1-HA; one peptide concentration (300 µM) [panel A]

binding: binds
B1: UPI peptide made of L-isomer amino acids (peptide)
peptide: SGEEELQLQLALAMSKEEMGCIKSKRKCRGDKGPDC
modifications: L-isomer amino acids
